Measurements: article PMC12667529
No constants are given. Whether binding was seen depends on the method and setting. Some binding calls cover weakened binding; strength is not graded here.

The chains behind the UniProt entries cited, without tags or fusion partners.
UniProt Q13148: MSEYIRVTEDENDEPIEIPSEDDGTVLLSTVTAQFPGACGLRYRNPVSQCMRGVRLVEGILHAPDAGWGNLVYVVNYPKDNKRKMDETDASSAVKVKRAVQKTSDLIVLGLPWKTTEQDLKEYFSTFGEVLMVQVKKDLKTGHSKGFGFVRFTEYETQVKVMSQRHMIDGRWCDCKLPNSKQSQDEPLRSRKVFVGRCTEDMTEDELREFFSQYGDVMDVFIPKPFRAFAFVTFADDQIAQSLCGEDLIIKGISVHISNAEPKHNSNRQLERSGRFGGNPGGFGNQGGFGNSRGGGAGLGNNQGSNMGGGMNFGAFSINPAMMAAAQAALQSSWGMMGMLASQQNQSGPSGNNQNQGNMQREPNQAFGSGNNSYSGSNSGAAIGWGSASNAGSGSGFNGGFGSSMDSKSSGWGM

Molecular target: TAR DNA-binding protein 43 (human (endogenous in post-mortem brain)) (UniProt Q13148)
Assay: single-molecule pulldown (SiMPull); CAP1-SiMPull with colabelling: aggregates of human brain extracts captured on biotinylated CAP1, detected with a fluorescent TDP-43 antibody and a second fluorescent antibody against the protein of interest; spots within a 4-pixel radius counted as colabelled; MND TDP cohort compared with controls

binding: binds
B1: calnexin (protein, UniProt P27824 21-592)
chain: HDGHDDDVIDIEDDLDDVIEEVEDSKPDTTAPPSSPKVTYKAPVPTGEVYFADSFDRGTLSGWILSKAKKDDTDDEIAKYDGKWEVEEMKESKLPGDKGLVLMSRAKHHAISAKLNKPFLFDTKPLIVQYEVNFQNGIECGGAYVKLLSKTPELNLDQFHDKTPYTIMFGPDKCGEDYKLHFIFRHKNPKTGIYEEKHAKRPDADLKTYFTDKKTHLYTLILNPDNSFEILVDQSVVNSGNLLNDMTPPVNPSREIEDPEDRKPEDWDERPKIPDPEAVKPDDWDEDAPAKIPDEEATKPEGWLDDEPEYVPDPDAEKPEDWDEDMDGEWEAPQIANPRCESAPGCGVWQRPVIDNPNYKGKWKPPMIDNPSYQGIWKPRKIPNPDFFEDLEPFRMTPFSAIGLELWSMTSDIFFDNFIICADRRIVDDWANDGWGLKKAADGAAEPGVVGQMIEAAEERPWLWVVYILTVALPVFLVILFCCSGKKQTSGMEYKKTDAPQPDVKEEEEEKEEEKDKGDEEEEGEEKLEEKQKSDAEEDGGTVSQEEEDRKPKAEEDEILNRSPRNRKPRRE
